Results: the supplement of paper PMC10849652
Some of the results follow.

The chains behind the UniProt entries cited, without tags or fusion partners. Where a name states a change or a piece, a line headed by the entry shows the natural chain unless it says otherwise.
UniProt Q96BJ3: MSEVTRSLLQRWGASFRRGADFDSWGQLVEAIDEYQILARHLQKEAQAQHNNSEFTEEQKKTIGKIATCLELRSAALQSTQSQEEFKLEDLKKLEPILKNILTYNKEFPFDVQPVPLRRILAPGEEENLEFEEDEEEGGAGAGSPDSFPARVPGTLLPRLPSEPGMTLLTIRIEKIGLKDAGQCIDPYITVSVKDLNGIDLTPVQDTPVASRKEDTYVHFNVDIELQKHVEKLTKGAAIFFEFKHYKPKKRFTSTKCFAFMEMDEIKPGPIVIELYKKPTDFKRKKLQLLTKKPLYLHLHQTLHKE
UniProt O94788: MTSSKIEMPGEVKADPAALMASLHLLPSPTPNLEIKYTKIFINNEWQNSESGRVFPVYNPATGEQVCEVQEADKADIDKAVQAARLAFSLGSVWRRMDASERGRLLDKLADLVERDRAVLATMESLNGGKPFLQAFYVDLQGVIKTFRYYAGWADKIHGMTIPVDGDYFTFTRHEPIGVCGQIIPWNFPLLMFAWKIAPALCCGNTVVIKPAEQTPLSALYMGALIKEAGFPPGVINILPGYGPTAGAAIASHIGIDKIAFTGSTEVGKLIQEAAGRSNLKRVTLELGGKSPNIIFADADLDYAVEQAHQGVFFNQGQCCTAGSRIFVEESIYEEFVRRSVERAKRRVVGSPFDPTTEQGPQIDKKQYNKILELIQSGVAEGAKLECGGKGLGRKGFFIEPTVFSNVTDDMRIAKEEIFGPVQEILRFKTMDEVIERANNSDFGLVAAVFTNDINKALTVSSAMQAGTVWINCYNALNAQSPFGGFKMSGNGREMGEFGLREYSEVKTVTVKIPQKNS
UniProt P00568: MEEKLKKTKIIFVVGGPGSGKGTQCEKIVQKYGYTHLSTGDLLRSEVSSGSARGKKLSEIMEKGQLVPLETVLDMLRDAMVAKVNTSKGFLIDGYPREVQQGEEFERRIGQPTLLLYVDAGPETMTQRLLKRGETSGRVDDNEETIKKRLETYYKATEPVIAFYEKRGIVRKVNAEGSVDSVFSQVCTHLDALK
UniProt Q9BVK2: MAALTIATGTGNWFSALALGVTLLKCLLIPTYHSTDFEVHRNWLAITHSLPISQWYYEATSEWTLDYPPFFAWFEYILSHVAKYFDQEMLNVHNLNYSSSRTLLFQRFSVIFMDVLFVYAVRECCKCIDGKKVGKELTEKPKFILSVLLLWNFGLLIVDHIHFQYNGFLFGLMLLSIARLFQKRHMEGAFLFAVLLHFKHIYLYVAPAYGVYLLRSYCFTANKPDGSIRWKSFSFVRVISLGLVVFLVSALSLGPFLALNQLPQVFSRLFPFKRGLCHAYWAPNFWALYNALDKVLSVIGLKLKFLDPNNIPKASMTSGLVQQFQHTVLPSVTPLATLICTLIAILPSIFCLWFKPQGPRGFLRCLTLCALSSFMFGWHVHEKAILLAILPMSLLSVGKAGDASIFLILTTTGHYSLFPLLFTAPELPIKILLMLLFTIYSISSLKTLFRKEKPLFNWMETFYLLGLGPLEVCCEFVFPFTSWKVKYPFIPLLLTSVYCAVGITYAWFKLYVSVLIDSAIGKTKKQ
UniProt P14550: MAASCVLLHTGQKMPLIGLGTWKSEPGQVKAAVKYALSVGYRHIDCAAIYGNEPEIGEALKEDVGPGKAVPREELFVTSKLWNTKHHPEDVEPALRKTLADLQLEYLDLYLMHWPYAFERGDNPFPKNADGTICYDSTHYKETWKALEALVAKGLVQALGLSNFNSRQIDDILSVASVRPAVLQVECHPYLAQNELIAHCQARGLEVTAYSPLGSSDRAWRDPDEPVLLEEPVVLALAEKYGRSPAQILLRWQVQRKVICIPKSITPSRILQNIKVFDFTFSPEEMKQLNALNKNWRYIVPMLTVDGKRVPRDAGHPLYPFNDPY
UniProt Q9H553: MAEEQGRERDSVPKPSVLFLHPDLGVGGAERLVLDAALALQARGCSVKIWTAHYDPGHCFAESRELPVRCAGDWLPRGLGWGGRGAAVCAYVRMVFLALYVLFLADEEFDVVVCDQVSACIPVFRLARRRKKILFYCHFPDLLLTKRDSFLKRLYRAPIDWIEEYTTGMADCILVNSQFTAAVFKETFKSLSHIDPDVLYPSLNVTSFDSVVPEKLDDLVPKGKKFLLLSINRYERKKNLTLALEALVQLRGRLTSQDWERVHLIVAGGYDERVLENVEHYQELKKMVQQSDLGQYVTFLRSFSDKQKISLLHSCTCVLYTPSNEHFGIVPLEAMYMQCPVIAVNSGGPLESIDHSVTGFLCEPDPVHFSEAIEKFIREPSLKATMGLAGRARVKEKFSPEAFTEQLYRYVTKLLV
UniProt Q9UKV8, whole entry, looked up: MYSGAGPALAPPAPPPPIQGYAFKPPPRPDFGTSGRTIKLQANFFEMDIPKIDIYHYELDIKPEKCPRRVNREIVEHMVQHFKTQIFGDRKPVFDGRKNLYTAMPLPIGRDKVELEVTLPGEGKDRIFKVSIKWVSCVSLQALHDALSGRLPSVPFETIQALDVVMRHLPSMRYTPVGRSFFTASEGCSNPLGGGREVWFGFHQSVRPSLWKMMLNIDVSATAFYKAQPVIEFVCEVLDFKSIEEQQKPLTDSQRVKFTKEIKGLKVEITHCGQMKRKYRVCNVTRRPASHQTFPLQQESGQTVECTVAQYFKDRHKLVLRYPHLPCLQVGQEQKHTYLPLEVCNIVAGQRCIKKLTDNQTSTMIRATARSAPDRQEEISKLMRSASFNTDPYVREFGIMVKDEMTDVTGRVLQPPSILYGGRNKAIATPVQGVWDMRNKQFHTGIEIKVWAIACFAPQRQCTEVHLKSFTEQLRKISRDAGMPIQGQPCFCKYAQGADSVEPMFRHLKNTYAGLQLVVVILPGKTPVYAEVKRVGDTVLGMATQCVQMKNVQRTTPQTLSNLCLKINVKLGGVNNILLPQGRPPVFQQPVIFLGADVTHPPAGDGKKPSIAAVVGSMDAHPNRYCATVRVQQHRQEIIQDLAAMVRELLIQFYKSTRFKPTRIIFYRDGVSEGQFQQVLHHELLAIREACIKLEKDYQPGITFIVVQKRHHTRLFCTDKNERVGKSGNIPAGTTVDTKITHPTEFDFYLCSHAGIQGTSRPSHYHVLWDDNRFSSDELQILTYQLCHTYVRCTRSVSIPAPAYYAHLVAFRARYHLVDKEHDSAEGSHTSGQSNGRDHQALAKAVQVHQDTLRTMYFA
UniProt Q96Q83: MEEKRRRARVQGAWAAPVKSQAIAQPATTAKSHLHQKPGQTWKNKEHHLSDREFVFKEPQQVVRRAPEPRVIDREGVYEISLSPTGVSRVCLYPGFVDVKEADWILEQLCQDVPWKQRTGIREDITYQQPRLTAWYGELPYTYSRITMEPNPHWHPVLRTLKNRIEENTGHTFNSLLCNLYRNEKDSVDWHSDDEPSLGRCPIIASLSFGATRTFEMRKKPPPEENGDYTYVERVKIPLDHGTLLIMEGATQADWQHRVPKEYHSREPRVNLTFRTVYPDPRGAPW
UniProt O95831, whole entry, looked up: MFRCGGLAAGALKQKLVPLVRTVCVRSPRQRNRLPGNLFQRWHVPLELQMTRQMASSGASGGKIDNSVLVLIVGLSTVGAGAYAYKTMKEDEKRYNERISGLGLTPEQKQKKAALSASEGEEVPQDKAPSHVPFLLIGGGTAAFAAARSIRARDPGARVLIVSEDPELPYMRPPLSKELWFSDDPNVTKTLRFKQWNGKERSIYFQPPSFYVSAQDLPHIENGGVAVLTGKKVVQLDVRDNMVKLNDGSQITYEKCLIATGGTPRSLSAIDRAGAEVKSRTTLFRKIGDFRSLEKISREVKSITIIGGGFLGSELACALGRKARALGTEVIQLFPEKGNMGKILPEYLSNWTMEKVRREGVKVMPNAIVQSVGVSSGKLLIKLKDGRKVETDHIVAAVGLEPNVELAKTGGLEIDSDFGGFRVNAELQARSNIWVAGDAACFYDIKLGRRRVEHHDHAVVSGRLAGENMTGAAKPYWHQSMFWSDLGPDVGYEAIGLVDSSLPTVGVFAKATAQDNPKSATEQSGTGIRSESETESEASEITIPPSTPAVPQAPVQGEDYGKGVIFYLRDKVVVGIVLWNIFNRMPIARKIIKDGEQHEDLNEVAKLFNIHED
UniProt Q12904: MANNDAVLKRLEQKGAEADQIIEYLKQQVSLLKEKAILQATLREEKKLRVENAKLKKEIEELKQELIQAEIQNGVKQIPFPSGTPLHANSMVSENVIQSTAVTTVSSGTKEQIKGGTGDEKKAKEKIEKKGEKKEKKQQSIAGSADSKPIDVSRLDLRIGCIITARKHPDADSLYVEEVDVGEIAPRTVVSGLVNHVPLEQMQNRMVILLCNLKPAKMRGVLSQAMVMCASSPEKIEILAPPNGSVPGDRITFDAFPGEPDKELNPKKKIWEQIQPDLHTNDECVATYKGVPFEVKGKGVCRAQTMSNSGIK
UniProt Q9H1A4, whole entry, looked up: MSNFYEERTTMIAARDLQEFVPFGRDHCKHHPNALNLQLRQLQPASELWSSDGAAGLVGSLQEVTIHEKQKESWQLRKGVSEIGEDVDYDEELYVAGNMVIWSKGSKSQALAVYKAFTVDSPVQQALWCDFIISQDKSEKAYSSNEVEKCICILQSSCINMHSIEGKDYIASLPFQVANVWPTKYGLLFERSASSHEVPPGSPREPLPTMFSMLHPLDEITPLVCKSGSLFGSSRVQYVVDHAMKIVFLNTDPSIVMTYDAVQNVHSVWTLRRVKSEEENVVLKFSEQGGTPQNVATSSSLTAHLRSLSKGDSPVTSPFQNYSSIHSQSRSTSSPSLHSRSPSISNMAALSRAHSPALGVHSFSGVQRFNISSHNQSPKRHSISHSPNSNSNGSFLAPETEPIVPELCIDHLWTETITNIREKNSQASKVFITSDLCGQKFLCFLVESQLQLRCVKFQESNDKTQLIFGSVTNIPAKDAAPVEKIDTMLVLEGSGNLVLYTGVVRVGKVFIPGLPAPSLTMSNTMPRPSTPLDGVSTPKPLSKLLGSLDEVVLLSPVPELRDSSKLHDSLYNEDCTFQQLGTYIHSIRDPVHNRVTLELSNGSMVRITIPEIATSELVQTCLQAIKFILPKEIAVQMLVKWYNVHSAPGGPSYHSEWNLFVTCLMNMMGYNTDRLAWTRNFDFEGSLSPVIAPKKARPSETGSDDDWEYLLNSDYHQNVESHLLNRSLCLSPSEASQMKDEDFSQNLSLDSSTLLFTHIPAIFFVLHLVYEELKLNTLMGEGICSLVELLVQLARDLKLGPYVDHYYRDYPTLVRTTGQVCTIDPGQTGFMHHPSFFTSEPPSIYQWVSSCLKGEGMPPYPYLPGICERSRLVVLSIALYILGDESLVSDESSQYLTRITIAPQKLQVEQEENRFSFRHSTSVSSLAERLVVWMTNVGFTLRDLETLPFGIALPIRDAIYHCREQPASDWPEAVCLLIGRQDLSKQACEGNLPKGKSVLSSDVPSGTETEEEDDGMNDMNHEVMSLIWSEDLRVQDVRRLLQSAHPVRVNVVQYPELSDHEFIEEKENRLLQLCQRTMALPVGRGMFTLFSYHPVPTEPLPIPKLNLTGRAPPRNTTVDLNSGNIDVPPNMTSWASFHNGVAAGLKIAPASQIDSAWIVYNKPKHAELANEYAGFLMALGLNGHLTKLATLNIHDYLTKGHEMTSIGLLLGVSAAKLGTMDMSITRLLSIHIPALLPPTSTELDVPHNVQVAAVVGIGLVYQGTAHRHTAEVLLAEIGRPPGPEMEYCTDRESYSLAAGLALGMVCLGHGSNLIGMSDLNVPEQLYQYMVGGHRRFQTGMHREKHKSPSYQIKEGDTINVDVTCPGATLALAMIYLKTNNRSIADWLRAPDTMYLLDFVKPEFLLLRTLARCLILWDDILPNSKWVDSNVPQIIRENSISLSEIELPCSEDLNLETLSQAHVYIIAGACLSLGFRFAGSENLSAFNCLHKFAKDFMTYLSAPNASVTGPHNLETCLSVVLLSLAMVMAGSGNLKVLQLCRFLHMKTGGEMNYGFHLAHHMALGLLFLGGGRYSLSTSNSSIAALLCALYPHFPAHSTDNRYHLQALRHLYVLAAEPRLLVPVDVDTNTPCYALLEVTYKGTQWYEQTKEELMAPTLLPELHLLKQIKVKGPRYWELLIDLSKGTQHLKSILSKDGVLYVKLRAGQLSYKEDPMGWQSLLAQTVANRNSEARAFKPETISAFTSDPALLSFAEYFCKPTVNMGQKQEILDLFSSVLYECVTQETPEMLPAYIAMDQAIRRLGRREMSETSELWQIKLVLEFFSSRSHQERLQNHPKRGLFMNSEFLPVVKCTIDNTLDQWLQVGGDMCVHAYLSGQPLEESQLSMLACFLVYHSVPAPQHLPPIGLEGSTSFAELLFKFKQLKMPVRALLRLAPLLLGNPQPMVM

Key:
Assay in all cases: log2 fold change, soluble protein after heating vs DMSO (PISA); higher = thermal stabilisation; K562 cells, 10 uM, 30 min; active = over 0.2 and 3.5 SD of the protein, either way, in both replicates (recomputed)
[1] = compound: CN1CCN(CCOc2cc(OC3CCOCC3)c3c(Nc4c(Cl)ccc5c4OCO5)ncnc3c2)CC1 [saracatinib]
Procedure, shortened: (§1)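 Soluble protein was defined as the supernatant after 21,000xg for 90 min. It came from K562 cells at 2×10^6 cells/mL given 10 μM compound for 30 min, heated in aliquots for 3 min across 48°C-58°C, pooled, and extracted in PBS with 0.5% NP-40 at 4°C, and was quantified by TMTpro 16plex LC-MS/MS with equalised channel sums. Thermal stability against control samples, from duplicates, is reported as log2 fold change.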

[2] = compound: CN1CCN(c2nc(C3=C(c4c[nH]c5ccccc45)C(=O)NC3=O)c3ccccc3n2)CC1 [sotrastaurin]
Procedure, shortened: as §1

[3] = compound: CN1CC[C@H](c2c(O)cc(O)c3c(=O)cc(-c4ccccc4Cl)oc23)[C@H](O)C1 [alvocidib]
Procedure, shortened: as §1

[4] = compound: CN1CCc2c(c3ccccc3n2Cc2ccc(C(=O)NO)cc2)C1 [Tubastatin A]
Procedure, shortened: as §1

[5] = compound: CNC(=O)C1=CC=CC=C1NC2=NC(=NC=C2Cl)NC3=C(C=C(C=C3)N4CCOCC4)OC
Procedure, shortened: as §1

[6] = compound: CNC(=O)c1ccc(Nc2ncc(C(F)(F)F)c(NCc3nccnc3N(C)S(C)(=O)=O)n2)cc1 [defactinib]
Procedure, shortened: as §1

[7] = compound: CNCc1ccc(-c2[nH]c3cc(F)cc4c3c2CCNC4=O)cc1 [rucaparib]
Procedure, shortened: as §1

[8] = compound: CNc1nc(-c2ccc3c(N)n[nH]c3c2)cc(N2C[C@@H](C(=O)NC3CCCCC3)CC[C@H]2C)n1
Procedure, shortened: as §1

[9] = compound: COC(=O)N[C@@H](C)CNc1nccc(-c2cn(C(C)C)nc2-c2cc(Cl)cc(NS(C)(=O)=O)c2F)n1 [encorafenib]
Procedure, shortened: as §1

[10] = compound: COC(=O)[C@H](CCSC)NC(=O)C1=C(C=C(C=C1)NC[C@H](CS)N)C2=CC=CC=C2
Procedure, shortened: as §1

[11] = compound: COC1=CC=C(C=C1)CN2C=CC3=C2C=C(C=C3)C(=O)NO
Procedure, shortened: as §1

[12] = compound: CON(C)C(=O)N1N=C(c2cc(F)ccc2F)S[C@@]1(CCCN)c1ccccc1 [filanesib]
Procedure, shortened: as §1

[13] = compound: CO[C@H]1C[C@@H]2CC[C@@H](C)[C@@](O)(O2)C(=O)C(=O)N2CCCC[C@H]2C(=O)O[C@H]([C@H](C)C[C@@H]2CC[C@H](n3cnnn3)[C@H](OC)C2)CC(=O)[C@H](C)/C=C(\C)[C@@H](O)[C@@H](OC)C(=O)[C@H](C)C[C@H](C)/C=C/C=C/C=C/1C [zotarolimus]
Procedure, shortened: as §1

[14] = compound: COc1cc(C(=O)O)ccc1NC(=O)[C@@H]1N[C@@H](CC(C)(C)C)[C@](C#N)(c2ccc(Cl)cc2F)[C@H]1c1cccc(Cl)c1F [idasanutlin]
Procedure, shortened: as §1

[15] = compound: COc1cc(Nc2ncc3c(n2)-c2ccc(Cl)cc2C(c2c(F)cccc2OC)=NC3)ccc1C(=O)O [alisertib]
Procedure, shortened: as §1

[16] = compound: COc1cc2nc(-c3cc(F)ccc3O)nc(N[C@@H]3CNC[C@H]3C(C)(C)O)c2cc1OC
Procedure, shortened: as §1

[17] = compound: COc1cc2ncnc(Nc3ccc(F)c(Cl)c3)c2cc1OCCCN1CCOCC1 [gefitinib]
Procedure, shortened: as §1

[18] = compound: COc1cccc2cc(-c3nc([C@H]4CC[C@H](C(=O)O)CC4)n4ncnc(N)c34)[nH]c12
Procedure, shortened: as §1

[19] = compound: CS(=O)(=O)CCNCc1ccc(-c2ccc3ncnc(Nc4ccc(OCc5cccc(F)c5)c(Cl)c4)c3c2)o1 [lapatinib]
Procedure, shortened: as §1

[20] = compound: CS(=O)(=O)N1CCN(Cc2cc3nc(-c4cccc5[nH]ncc45)nc(N4CCOCC4)c3s2)CC1 [pictilisib]
Procedure, shortened: as §1

Measured: log2 fold change

AIDA (UniProt Q96BJ3)
inactive: [1] -0.008 | [2] -0.031 | [3] -0.14 | [4] 0.027 | [5] -0.044 | [6] -0.08 | [7] -0.036 | [8] 0 | [9] 0.025 | [10] 0.039 | [11] 0.005 | [12] 0.062 | [13] 0.058 | [14] -0.01 | [15] 0.011 | [16] -0.007 | [17] 0.053 | [18] 0.039 | [19] -0.036 | [20] 0.002

ADSS1 (UniProt Q8N142)
inactive: [1] 0.044 | [2] 0.051 | [3] -0.011 | [4] 0.034 | [5] -0.018 | [6] 0 | [7] -0.029 | [8] -0.031 | [9] 0.003 | [10] 0.029 | [11] -0.009 | [12] -0.06 | [13] -0.055 | [14] -0.129 | [15] 0.039 | [16] 0.161 | [17] 0.022 | [18] 0.026 | [19] 0.015 | [20] 0.056

AK2 isoform 2 (UniProt P54819)
inactive: [1] 0.015 | [2] 0.036 | [3] 0.015 | [4] -0.006 | [5] -0.024 | [6] -0.01 | [7] -0.028 | [8] -0.033 | [9] -0.038 | [10] 0.031 | [11] -0.002 | [12] -0.023 | [13] -0.044 | [14] -0.008 | [15] -0.058 | [16] 0.008 | [17] 0.008 | [18] 0.019 | [19] -0.028 | [20] 0.072

ALDH1A2 (UniProt O94788)
inactive: [1] 0.017 | [2] 0.006 | [3] -0.033 | [4] -0.005 | [5] 0.017 | [6] -0.014 | [7] -0.08 | [8] -0.001 | [9] -0.016 | [10] -0.004 | [11] 0.047 | [12] -0.074 | [13] -0.009 | [14] -0.026 | [15] 0.001 | [16] -0.003 | [17] 0.016 | [18] 0.058 | [19] -0.004 | [20] 0.091

AK1 (UniProt P00568)
inactive: [1] -0.004 | [2] 0.011 | [3] -0.062 | [4] 0.013 | [5] 0.064 | [6] -0.042 | [7] 0.01 | [8] -0.003 | [9] -0.036 | [10] -0.01 | [11] 0.001 | [12] -0.038 | [13] -0.02 | [14] -0.072 | [15] -0.029 | [16] 0.007 | [17] -0.026 | [18] 0.009 | [19] -0.01 | [20] 0.208

ALG8 (UniProt Q9BVK2)
inactive: [1] 0.007 | [2] -0.094 | [3] 0.002 | [4] -0.018 | [5] 0.102 | [6] 0.006 | [7] -0.068 | [8] 0.02 | [9] 0.044 | [10] 0.007 | [11] -0.036 | [12] -0.1 | [13] 0.029 | [14] -0.197 | [15] -0.005 | [16] -0.041 | [17] -0.029 | [18] 0.037 | [19] 0.043 | [20] -0.026

Four neighbouring entries out of the list so far, quoted:
AK2 isoform 2 (UniProt P54819)
inactive: [1] 0.015 | [2] 0.036 | [3] 0.015 | [4] -0.006 | [5] -0.024 | [6] -0.01 | [7] -0.028 | [8] -0.033 | [9] -0.038 | [10] 0.031 | [11] -0.002 | [12] -0.023 | [13] -0.044 | [14] -0.008 | [15] -0.058 | [16] 0.008 | [17] 0.008 | [18] 0.019 | [19] -0.028 | [20] 0.072

ALDH1A2 (UniProt O94788)
inactive: [1] 0.017 | [2] 0.006 | [3] -0.033 | [4] -0.005 | [5] 0.017 | [6] -0.014 | [7] -0.08 | [8] -0.001 | [9] -0.016 | [10] -0.004 | [11] 0.047 | [12] -0.074 | [13] -0.009 | [14] -0.026 | [15] 0.001 | [16] -0.003 | [17] 0.016 | [18] 0.058 | [19] -0.004 | [20] 0.091

AK1 (UniProt P00568)
inactive: [1] -0.004 | [2] 0.011 | [3] -0.062 | [4] 0.013 | [5] 0.064 | [6] -0.042 | [7] 0.01 | [8] -0.003 | [9] -0.036 | [10] -0.01 | [11] 0.001 | [12] -0.038 | [13] -0.02 | [14] -0.072 | [15] -0.029 | [16] 0.007 | [17] -0.026 | [18] 0.009 | [19] -0.01 | [20] 0.208

ALG8 (UniProt Q9BVK2)
inactive: [1] 0.007 | [2] -0.094 | [3] 0.002 | [4] -0.018 | [5] 0.102 | [6] 0.006 | [7] -0.068 | [8] 0.02 | [9] 0.044 | [10] 0.007 | [11] -0.036 | [12] -0.1 | [13] 0.029 | [14] -0.197 | [15] -0.005 | [16] -0.041 | [17] -0.029 | [18] 0.037 | [19] 0.043 | [20] -0.026

Next part:

AKR1A1 (UniProt P14550)
inactive: [1] 0.006 | [2] 0.018 | [3] -0.101 | [4] 0.011 | [5] -0.019 | [6] -0.042 | [7] -0.071 | [8] -0.009 | [9] 0.007 | [10] -0.007 | [11] 0.045 | [12] -0.048 | [13] -0.003 | [14] -0.081 | [15] -0.03 | [16] 0.054 | [17] 0.02 | [18] 0.043 | [19] 0.004 | [20] 0.017

ALG2 (UniProt Q9H553)
inactive: [1] -0.046 | [2] 0.005 | [3] -0.072 | [4] -0.004 | [5] 0.044 | [6] 0.009 | [7] 0.083 | [8] -0.014 | [9] 0.041 | [10] -0.008 | [11] 0.02 | [12] 0.032 | [13] 0.037 | [14] -0.047 | [15] 0.06 | [16] 0.088 | [17] 0.043 | [18] 0.034 | [19] -0.024 | [20] 0.022

ALDH1A1 (UniProt P00352)
inactive: [1] 0.04 | [2] 0.037 | [3] 0 | [4] 0.003 | [5] 0.03 | [6] -0.005 | [7] -0.041 | [8] -0.002 | [9] -0.044 | [10] -0.002 | [11] 0.096 | [12] -0.073 | [13] 0.014 | [14] -0.059 | [15] -0.038 | [16] 0.041 | [17] 0.016 | [18] 0.043 | [19] 0.002 | [20] 0.139

AGO2 (UniProt Q9UKV8)
inactive: [1] 0.047 | [2] 0.018 | [3] 0.105 | [4] -0.023 | [5] 0.012 | [6] 0.084 | [7] 0.079 | [8] -0.031 | [9] -0.023 | [10] -0.022 | [11] 0.053 | [12] 0.057 | [13] -0.037 | [14] 0.037 | [15] -0.053 | [16] 0.037 | [17] -0.012 | [18] 0.06 | [19] 0.014 | [20] 0

ALKBH3 (UniProt Q96Q83)
inactive: [1] 0.033 | [2] 0.017 | [3] -0.016 | [4] -0.034 | [5] -0.08 | [6] -0.006 | [7] 0.006 | [8] -0.068 | [9] -0.035 | [10] 0.019 | [11] -0.152 | [12] -0.001 | [13] -0.065 | [14] -0.002 | [15] -0.028 | [16] 0.013 | [17] -0.038 | [18] 0.026 | [19] 0.016 | [20] 0.043

AIFM1 (UniProt O95831)
inactive: [1] 0.008 | [2] 0.017 | [3] -0.017 | [4] -0.042 | [5] 0.011 | [6] -0.014 | [7] -0.048 | [8] -0.04 | [9] -0.018 | [10] -0.003 | [11] -0.021 | [12] -0.07 | [13] -0.028 | [14] -0.027 | [15] -0.046 | [16] -0.005 | [17] 0.02 | [18] 0.03 | [19] -0.03 | [20] 0.015

AGO4 (UniProt Q9HCK5)
inactive: [1] 0.003 | [2] 0.087 | [3] 0.095 | [4] -0.039 | [5] -0.018 | [6] 0.064 | [7] 0.078 | [8] 0.006 | [9] -0.015 | [10] -0.048 | [11] -0.038 | [12] 0.131 | [13] -0.038 | [14] -0.015 | [15] -0.033 | [16] 0.041 | [17] -0.022 | [18] 0.027 | [19] 0.053 | [20] 0

AHCY (UniProt P23526)
inactive: [1] 0.052 | [2] 0.03 | [3] 0.002 | [4] -0.029 | [5] -0.039 | [6] -0.002 | [7] -0.025 | [8] -0.006 | [9] -0.016 | [10] -0.002 | [11] 0.024 | [12] -0.044 | [13] 0.007 | [14] -0.007 | [15] -0.105 | [16] -0.008 | [17] -0.002 | [18] 0.045 | [19] -0.019 | [20] 0.02

AIMP1 isoform 2 (UniProt Q12904)
inactive: [1] -0.12 | [2] -0.13 | [3] 0.222 | [4] 0.07 | [5] 0.072 | [6] 0.21 | [7] 0.441 | [8] 0.141 | [9] 0.172 | [10] -0.041 | [11] -0.02 | [12] 0.289 | [13] 0.115 | [14] 0.203 | [15] 0.015 | [16] -0.065 | [17] -0.012 | [18] -0.137 | [19] 0.099 | [20] -0.152

ANAPC1 (UniProt Q9H1A4)
inactive: [1] -0.011 | [2] -0.025 | [3] -0.022 | [4] 0.045 | [5] 0.021 | [6] 0.017 | [7] 0.027 | [8] -0.033 | [9] 0.037 | [10] -0.005 | [11] 0.008 | [12] 0.046 | [13] 0.025 | [14] 0.024 | [15] -0.072 | [16] 0.03 | [17] -0.012 | [18] -0.025 | [19] 0.059 | [20] -0.018
